Measurements reported in PubChem BioAssay AID743121 (NCATS, 2013).

Assay: 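Knock-downs that sensitise breast cancer cells to camptothecin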 (primary screen)
System: MDA-MB-231 cells, a human breast cancer line
Reagent: single siRNA against human genes, 20 nM siRNA (0.8 pmol per well)
Time to read-out: 120 h (drug added 48 h after transfection, read 72 h later)
Conditions: camptothecin 20 nM (about EC30) for 72 h; vehicle 0.1% DMSO in parallel plates
Measured: 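CellTiter-Glo ATP signal, scaled to control siRNA as percent viability; sensitisation given as log2 of untreated divided by camptothecin-treated viability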
Direction: log2 vehicle/camptothecin viability: higher = stronger sensitisation to camptothecin
Call rule: 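Active genes have an RSA gene-level p-value below 0.001, computed from the ratios of their separate siRNAs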
Here is one part, drawn at random, of about 26,000 reagents tested. In the full data, 167 (0.63%) were called active. 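Calls are per gene from RSA p-values that are not deposited; an individual active-marked siRNA can sensitise only weakly.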 Entries without a mark were called inactive. Reagents against one gene are numbered here. Not all columns of the deposit are shown.

With knock-down of BCL2L12 #1 the results were log2 vehicle/camptothecin viability -0.17.
Knock-down of BCL2L12 #2 resulted in: log2 vehicle/camptothecin viability -0.778.
BCL2L12 #3 scored log2 vehicle/camptothecin viability 0.121.
After knock-down of BCL2L12 #4, the screen gave log2 vehicle/camptothecin viability -0.279.
With knock-down of ASCC2 #1, the screen gave log2 vehicle/camptothecin viability -0.352.
ASCC2 #2 scored log2 vehicle/camptothecin viability -0.257.
For ASCC2 #3, the entry reads log2 vehicle/camptothecin viability -0.348.
With knock-down of ASCC2 #4, the record shows log2 vehicle/camptothecin viability -0.0859.
Silencing of CYP4Z1 #1 came out at: log2 vehicle/camptothecin viability 0.0604.
For CYP4Z1 #2, the entry reads log2 vehicle/camptothecin viability 0.206.
For CYP4Z1 #3 the deposit lists log2 vehicle/camptothecin viability -0.115.
Knock-down of LYNX1 #1 resulted in: log2 vehicle/camptothecin viability 0.0849.
Depletion of LYNX1 #2 gave: log2 vehicle/camptothecin viability -0.313.
For LYNX1 #3, the values are log2 vehicle/camptothecin viability -0.898.
With knock-down of LYNX1 #4 the results were log2 vehicle/camptothecin viability -0.284.
Depletion of LYNX1 #5 gave: log2 vehicle/camptothecin viability 1.02.
After knock-down of LYNX1 #6 the results were log2 vehicle/camptothecin viability -0.626.
Against LYNX1 #7, the entry reads log2 vehicle/camptothecin viability 0.477.
Silencing of LYNX1 #8 resulted in: log2 vehicle/camptothecin viability -0.298.
LYNX1 #9 scored log2 vehicle/camptothecin viability -0.151.
For NCK2 #1, the entry reads log2 vehicle/camptothecin viability -0.023.
Against NCK2 #2 the deposit lists log2 vehicle/camptothecin viability 0.111.
Against NCK2 #3, the entry reads log2 vehicle/camptothecin viability -0.181.
NCK2 #4 gave log2 vehicle/camptothecin viability -0.323.
Depletion of KCNC3 #1 came out at: log2 vehicle/camptothecin viability -0.191.
For KCNC3 #2, the values are log2 vehicle/camptothecin viability -0.74.
KCNC3 #3 showed log2 vehicle/camptothecin viability -0.355.
KCNC3 #4 scored log2 vehicle/camptothecin viability -0.289.
With knock-down of BCAR1 #1, the record shows log2 vehicle/camptothecin viability -0.0717.
For BCAR1 #2, the entry reads log2 vehicle/camptothecin viability 0.0282.
BCAR1 #3 scored log2 vehicle/camptothecin viability -0.476.
After knock-down of BCAR1 #4 the results were log2 vehicle/camptothecin viability -0.177.
PLK3 #1 showed log2 vehicle/camptothecin viability -0.0357.
With knock-down of PLK3 #2 the results were log2 vehicle/camptothecin viability 0.013.
PLK3 #3 scored log2 vehicle/camptothecin viability -0.298.
After knock-down of PLK3 #4 the results were log2 vehicle/camptothecin viability -0.473.

Sorted by “log2 vehicle/camptothecin viability” (low to high): some entries from above.
LYNX1 #3: log2 vehicle/camptothecin viability = -0.898
LYNX1 #2: log2 vehicle/camptothecin viability = -0.313
